Assay results reported in article PMC3663554.

The chains behind the UniProt entries cited, without tags or fusion partners.
UniProt Q8WW43: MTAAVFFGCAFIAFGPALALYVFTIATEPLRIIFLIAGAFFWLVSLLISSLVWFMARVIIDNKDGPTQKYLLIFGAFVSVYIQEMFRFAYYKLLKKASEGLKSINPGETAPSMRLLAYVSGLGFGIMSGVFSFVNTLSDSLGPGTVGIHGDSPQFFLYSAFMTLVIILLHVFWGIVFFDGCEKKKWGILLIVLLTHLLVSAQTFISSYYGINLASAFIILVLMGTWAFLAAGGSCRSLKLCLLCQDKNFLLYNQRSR
UniProt P08962: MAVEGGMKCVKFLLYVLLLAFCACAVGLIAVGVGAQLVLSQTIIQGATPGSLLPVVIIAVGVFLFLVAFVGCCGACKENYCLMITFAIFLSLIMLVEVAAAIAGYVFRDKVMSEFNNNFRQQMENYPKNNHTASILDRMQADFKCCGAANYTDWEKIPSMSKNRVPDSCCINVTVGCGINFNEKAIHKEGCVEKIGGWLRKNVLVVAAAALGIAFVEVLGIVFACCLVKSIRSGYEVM
UniProt P35222: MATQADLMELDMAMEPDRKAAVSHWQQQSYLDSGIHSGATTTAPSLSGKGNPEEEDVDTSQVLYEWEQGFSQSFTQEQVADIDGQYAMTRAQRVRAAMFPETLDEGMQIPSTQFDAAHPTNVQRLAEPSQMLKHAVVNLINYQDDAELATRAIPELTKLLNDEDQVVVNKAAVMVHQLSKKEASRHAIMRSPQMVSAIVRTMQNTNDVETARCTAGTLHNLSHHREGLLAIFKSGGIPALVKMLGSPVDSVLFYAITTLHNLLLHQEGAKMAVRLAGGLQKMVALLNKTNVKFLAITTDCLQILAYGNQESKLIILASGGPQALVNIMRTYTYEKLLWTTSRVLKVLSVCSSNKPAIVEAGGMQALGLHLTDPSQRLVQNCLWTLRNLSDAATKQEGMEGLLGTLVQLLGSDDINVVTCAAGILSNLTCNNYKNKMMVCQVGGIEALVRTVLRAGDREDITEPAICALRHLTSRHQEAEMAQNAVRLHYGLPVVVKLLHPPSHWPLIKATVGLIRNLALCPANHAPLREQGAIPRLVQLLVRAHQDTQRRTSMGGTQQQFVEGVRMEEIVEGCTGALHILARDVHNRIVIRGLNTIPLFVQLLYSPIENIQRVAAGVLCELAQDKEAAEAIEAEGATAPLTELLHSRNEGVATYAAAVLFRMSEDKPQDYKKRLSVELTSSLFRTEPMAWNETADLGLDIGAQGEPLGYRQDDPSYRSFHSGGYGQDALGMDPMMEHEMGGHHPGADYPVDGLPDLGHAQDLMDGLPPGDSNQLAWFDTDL

B1: signal peptide peptidase (SPP) (enzyme, UniProt Q8TCT9 1-377)
chain: MDSALSDPHNGSAEAGGPTNSTTRPPSTPEGIALAYGSLLLMALLPIFFGALRSVRCARGKNASDMPETITSRDAARFPIIASCTLLGLYLFFKIFSQEYINLLLSMYFFVLGILALSHTISPFMNKFFPASFPNRQYQLLFTQGSGENKEEIINYEFDTKDLVCLGLSSIVGVWYLLRKHWIANNLFGLAFSLNGVELLHLNNVSTGCILLGGLFIYDVFWVFGTNVMVTVAKSFEAPIKLVFPQDLLEKGLEANNFAMLGLGDVVIPGIFIALLLRFDISLKKNTHTYFYTSFAAYIFGLGLTIFIMHIFKHAQPALLYLVPACIGFPVLVALAKGEVTEMFSYEESNPKDPAAVTESKEGTEASASKGLEKKEK
B2: catenin δ-1 (protein, UniProt O60716 1-968)
chain: MDDSEVESTASILASVKEQEAQFEKLTRALEEERRHVSAQLERVRVSPQDANPLMANGTLTRRHQNGRFVGDADLERQKFSDLKLNGPQDHSHLLYSTIPRMQEPGQIVETYTEEDPEGAMSVVSVETSDDGTTRRTETTVKKVVKTVTTRTVQPVAMGPDGLPVDASSVSNNYIQTLGRDFRKNGNGGPGPYVGQAGTATLPRNFHYPPDGYSRHYEDGYPGGSDNYGSLSRVTRIEERYRPSMEGYRAPSRQDVYGPQPQVRVGGSSVDLHRFHPEPYGLEDDQRSMGYDDLDYGMMSDYGTARRTGTPSDPRRRLRSYEDMIGEEVPSDQYYWAPLAQHERGSLASLDSLRKGGPPPPNWRQPELPEVIAMLGFRLDAVKSNAAAYLQHLCYRNDKVKTDVRKLKGIPVLVGLLDHPKKEVHLGACGALKNISFGRDQDNKIAIKNCDGVPALVRLLRKARDMDLTEVITGTLWNLSSHDSIKMEIVDHALHALTDEVIIPHSGWEREPNEDCKPRHIEWESVLTNTAGCLRNVSSERSEARRKLRECDGLVDALIFIVQAEIGQKDSDSKLVENCVCLLRNLSYQVHREIPQAERYQEAAPNVANNTGPHAASCFGAKKGKDEWFSRGKKPIEDPANDTVDFPKRTSPARGYELLFQPEVVRIYISLLKESKTPAILEASAGAIQNLCAGRWTYGRYIRSALRQEKALSAIADLLTNEHERVVKAASGALRNLAVDARNKELIGKHAIPNLVKNLPGGQQNSSWNFSEDTVISILNTINEVIAENLEAAKKLRETQGIEKLVLINKSGNRSEKEVRAAALVLQTIWGYKELRKPLEKEGWKKSDFQVNLNNASRSQSSHSYDDSTLPLIDRNQKSDKKPDREEIQMSNMGSNTKSLDNNYSTPNERGDHNRTLDRSGDLGDMEPLKGTTPLMQDEGQESLEEELDVLVLDDEGGQVSYPSMQKI
B3: Tmp21 (protein, UniProt P49755 32-219)
chain: ISFHLPINSRKCLREEIHKDLLVTGAYEISDQSGGAGGLRSHLKITDSAGHILYSKEDATKGKFAFTTEDYDMFEVCFESKGTGRIPDQLVILDMKHGVEAKNYEEIAKVEKLKPLEVELRRLEDLSESIVNDFAYMKKREEEMRDTNESTNTRVLYFSIFSMFCLIGLATWQVFYLRRFFKAKKLIE

target: TAP-PS2 (human presenilin 2 with N-terminal Protein G-TEV-SBP tandem affinity purification tag) (human) (UniProt P49810); experiment: affinity purification with mass spectrometry; TAP purification from HEK293F (IgG resin, TEV cleavage, WGA resin, streptavidin resin, biotin elution; CHAPSO/DDM); eluates trypsinized in solution; iTRAQ114 PS1 negative control, 115 PS1, 116 PS2 negative control, 117 PS2; control: biotin-saturated streptavidin resin

binding | Molecule
binds | Aph-1B (from UniProt Q8WW43 1-257)
binds | CD63 (from UniProt P08962 1-238)
no binding | β-catenin (HEK293) (from UniProt P35222 1-781)
binds | B1
no binding | B2
binds | B3

No constants are given. Whether binding was seen depends on the method and setting. Binding seen in cells or lysates may run through a third protein. These calls come from enrichment with a bait or labelling near it, and not all partners need be listed. No binding means not detected with the bait.
